PubChem BioAssay AID1224830 | NIAID | 2016
The deposit covers about 18,000 reagents; shown is a random part of them. About 2,900 of all reagents (16%) were called active. 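Calls are made per well; low scores hint the gene aids the LPS response, high scores that it dampens it.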 A number with no mark means an inactive call. Repeated entries: four replicate wells of each siRNA pool.

Test: 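Genes whose knock-down alters the TNF-alpha reporter response to LPS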 (primary screen)
System: human THP-1 monocytic leukaemia cells, TNF dual-luciferase reporter clone, PMA-differentiated to macrophage-like cells
Knock-down reagent: siRNA pool against human genes, 50 nM
Duration: LPS for 4 h, given about 3 days after siRNA transfection
Challenge: bacterial LPS (TLR4 ligand), 10 ng/ml
Measurement: 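TNF firefly reporter luminescence divided by renilla, normalised to the plate median, then turned into a robust z-score for each replicate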
Scale: TNF reporter robust z-score: higher = stronger TNF reporter response to LPS
Rule for the call: 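a well is active when its z-score exceeds 2.8 or falls below -1.5; control wells carry no call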

target,TNF reporter robust z-score
TXNL1,0.51
TXNL1,0.96
TXNL1,-0.16
TXNL1,0.85
SPATA19,-1.41
SPATA19,-1.71 (active)
SPATA19,-0.16
SPATA19,-1.42
GNA11,-1.11
GNA11,-0.72
GNA11,-1.41
GNA11,-0.58
TRAF5,0.37
TRAF5,-0.37
TRAF5,0.22
TRAF5,-1.22
CRB1,2.28
CRB1,-0.57
CRB1,-0.98
CRB1,-0.24
SOD2,-0.58
SOD2,-0.45
SOD2,-0.09
SOD2,0.27
OR5K2,-0.85
OR5K2,0.03
OR5K2,-1.86 (active)
OR5K2,0.05
C11orf68,-1.51 (active)
C11orf68,-1.13
C11orf68,-1.09
C11orf68,-0.86
TRPC6,0.58
TRPC6,-0.77
TRPC6,-0.98
TRPC6,-1.05
ACOT6,-0.84
ACOT6,-0.45
ACOT6,-0.69
ACOT6,-0.61
CST2,-0.12
CST2,-0.24
CST2,-0.79
CST2,-0.81
B3GNT5,0.51
B3GNT5,1.35
B3GNT5,1.12
B3GNT5,-0.01
KRT8,2.24
KRT8,1.22
KRT8,1.53
KRT8,2
KIR3DX1,-0.28
KIR3DX1,0.46
KIR3DX1,-0.45
KIR3DX1,0.19
NCAPD2,-1.22
NCAPD2,-0.78
NCAPD2,-0.86
NCAPD2,-1.02
GBX2,0.87
GBX2,0.52
GBX2,0.16
GBX2,0.01
CCDC102A,-1.39
CCDC102A,-0.9
CCDC102A,-0.86
CCDC102A,-0.19
GPR135,0.17
GPR135,0.5
GPR135,0.56
GPR135,1.12
LOC100288884,-0.03
LOC100288884,-0.08
LOC100288884,0.01
LOC100288884,0.07
SVOP,-0.28
SVOP,0.79
SVOP,1.64
SVOP,-0.38
AMDHD2,0.83
AMDHD2,2.22
AMDHD2,3.97 (active)
AMDHD2,3.62 (active)
TAFA2,-0.1
TAFA2,0.26
TAFA2,0.58
TAFA2,1.62
SEPTIN11,-1.48
SEPTIN11,-1.66 (active)
SEPTIN11,-1.45
SEPTIN11,-1.83 (active)
OR5B21,-0.84
OR5B21,1.06
OR5B21,-0.25
OR5B21,0.58
PRM1,0.49
PRM1,-1.2
PRM1,-0.72
PRM1,-0.19
PCDHGA6,0.24
PCDHGA6,0.58
PCDHGA6,-0.04
PCDHGA6,-0.13
ALX3,-0.03
ALX3,-0.65
ALX3,0.08
ALX3,0.04
KLRF1,-1.24
KLRF1,-1.5
KLRF1,-0.51
KLRF1,-1.09

Ordered by “TNF reporter robust z-score” (ascending): some entries from above.
target,TNF reporter robust z-score
C11orf68,-1.13
C11orf68,-1.09
TRPC6,-1.05
TRPC6,-0.98
C11orf68,-0.86
ACOT6,-0.84
CST2,-0.81
CST2,-0.79
TRPC6,-0.77
ACOT6,-0.69
ACOT6,-0.61
ACOT6,-0.45
CST2,-0.24
CST2,-0.12
B3GNT5,-0.01
B3GNT5,0.51
TRPC6,0.58
B3GNT5,1.12
B3GNT5,1.35
